Results on 8 molecules are retold here after PubChem BioAssay AID328 (DTP/NCI, 2004).

The list does not hold the whole screen: it is rich in T/C values a quarter to a half above the control, in often repeated tests (any T/C) and in doses without a T/C. Other doses and runs of a compound stand elsewhere. T/C: endpoint of the treated group in % of that of the vehicle group. Some doses have a count of surviving animals in place of a T/C: the source files T/C as zero there, which appears to mark a toxic dose or a test without result, not a measured value. Some survivor counts are full or nearly so, which does not show that the dose was tolerated: survival well below the control is almost never listed, so the zero probably covers shortened survival too. Survivors were counted at the toxicity check, usually on the fifth day, unless a day is given; later deaths do not show. Schedules are NCI's codes, read here as Q, the interval in days (D) or hours (H), X, the number of doses. Some entries were tested several times; the values are given in rising order. For survival time, this PubChem deposit counts one and a half times the control or more as active, and values a quarter to a half above the control carry no call in these data; other NCI protocols may use other cut-offs. Signs of the kind (2×) say how often a value occurs here. Some T/C values are followed by the survivors on the day toxicity was checked, most often the fifth; where none is given, no animal had died by that day.

This assay has as its system BDF1 mice, P388 leukemia ip, median survival T/C. Kind of assay: NCI In Vivo Anticancer Drug Screen. Data for tumor model P388 Leukemia (intraperitoneal) in B6D2F1 (BDF1) mice. The conditions noted are these: T/C endpoint: median survival time, higher T/C = longer survival. In short, it runs like this:
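Reported as T/C, where T is the survival measurement in dosed animals and C the same measurement in vehicle controls.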

For the molecule `NC(=S)NNC(=O)C(Cc1ccccc1)NC(=O)OCc1ccccc1` (centres undefined), the survivor count (dose: 50.0 mg/kg/injection, schedule: Q01DX009 (ip), vehicle: saline with Tween-80) is reported as 5 of 6.

As to `CC1OC(O[C@@H]2C=C3CC[C@@H]4[C@H](CC[C@]5(C)[C@@H](c6ccc(=O)oc6)CC[C@]45O)[C@@]3(C)CC2)C(O)C(O)C1O` (some centres undefined), the survivor count (dose: 10.0 mg/kg/injection, schedule: Q01DX010 (ip), vehicle: carboxymethylcellulose (CMC)) is recorded as 1 of 6.

In the case of `Cc1cc(N(c2c(Cl)c(Cl)c(NS(=O)(=O)c3ccccc3)c(Cl)c2Cl)S(=O)(=O)c2ccccc2)cc(C)c1N`, the survivor count (dose: 100.0 mg/kg/injection, schedule: Q01DX009 (ip), vehicle: Klucel (hydroxypropylcellulose) (HPC)) is recorded as 6 of 6.

Take `NC(=O)c1ccc(NC(=O)/C=C/C(=O)Nc2ccc(C(N)=O)cn2)nc1`: the survivor count (dose: 2.8 mg/kg/injection, schedule: Q01DX009 (ip), vehicle: saline) is 5 of 6; the survivor count (dose: 11.25 mg/kg/injection, schedule: Q01DX009 (ip), vehicle: saline) was 4 of 6; the survivor count (dose: 22.5 mg/kg/injection, schedule: Q01DX009 (ip), vehicle: saline) is given as 6 of 6; the survivor count (dose: 60.0 mg/kg/injection, schedule: Q04DX003 (ip), vehicle: saline) is 6 of 6.

`CN(C)c1ccc(N=Nc2ccc([As](=O)(O)O)cc2)cc1`: the survivor count is reported as 5 of 6 (dose: 5.0 mg/kg/injection, schedule: Q04DX003 (ip), vehicle: saline with Tween-80); 5 of 6 (dose: 10.0 mg/kg/injection, schedule: Q04DX003 (ip), vehicle: saline with Tween-80); 4 of 6 (dose: 20.0 mg/kg/injection, schedule: Q04DX003 (ip), vehicle: saline with Tween-80).

As to `COC(=O)C[C@](O)(CCC(C)(C)O)C(=O)O[C@@H]1C(OC)=C[C@]23CCCN2CCc2cc4c(cc2[C@H]13)OCO4`, the T/C was 126 % of control (dose: 0.2 mg/kg/injection, schedule: Q01DX010 (ip), vehicle: saline); 127 % of control (dose: 0.25 mg/kg/injection, schedule: Q03HX008 (ip), vehicle: saline); 175 and 240 % of control (dose: 0.5 mg/kg/injection, schedule: Q01DX009 (ip), vehicle: saline, evaluated on day 30); 200 and 209 % of control (dose: 0.5 mg/kg/injection, schedule: Q01DX009 (ip), vehicle: saline, evaluated on day 60); 130 % of control (dose: 0.5 mg/kg/injection, schedule: Q01DX009 (oral), vehicle: saline); 135 % of control (dose: 0.5 mg/kg/injection, schedule: Q01DX009 (sc), vehicle: saline). Also, the T/C is 142 % of control (dose: 0.5 mg/kg/injection, schedule: Q01DX010 (ip), vehicle: saline); 140 % of control (dose: 0.5 mg/kg/injection, schedule: Q01DX010 (sc), vehicle: saline); 145 % of control (dose: 1.0 mg/kg/injection, schedule: Q01DX006 (iv), vehicle: saline); 204 and 255 % of control (dose: 1.0 mg/kg/injection, schedule: Q01DX009 (ip), vehicle: saline, evaluated on day 30); 240 % of control (2×) (dose: 1.0 mg/kg/injection, schedule: Q01DX009 (ip), vehicle: saline, evaluated on day 60); 140 % of control [9 of 10 alive] (dose: 1.0 mg/kg/injection, schedule: Q01DX009 (oral), vehicle: saline). Also, the T/C is, setting by setting: (dose: 1.0 mg/kg/injection, schedule: Q01DX010 (ip), vehicle: saline) 147 % of control; (dose: 1.0 mg/kg/injection, schedule: Q01DX010 (sc), vehicle: saline) 135 % of control; (dose: 1.0 mg/kg/injection, schedule: Q03HX008 (ip), vehicle: saline) 145 % of control [7 of 10 alive]; (dose: 2.0 mg/kg/injection, schedule: Q01DX001 (ip), vehicle: saline) 131 % of control; (dose: 2.0 mg/kg/injection, schedule: Q01DX009 (ip), vehicle: saline, evaluated on day 30) 216 and 280 % of control [9 of 10 alive]; (dose: 2.0 mg/kg/injection, schedule: Q01DX009 (ip), vehicle: saline, evaluated on day 60) 227 and 304 % of control. Moreover, the T/C is 147 % of control (dose: 2.0 mg/kg/injection, schedule: Q01DX010 (ip), vehicle: saline); 131 % of control (dose: 2.0 mg/kg/injection, schedule: Q08DX002 (ip), vehicle: saline); 127 % of control (dose: 4.0 mg/kg/injection, schedule: Q01DX001 (ip), vehicle: saline); 135 % of control [8 of 10 alive] (dose: 4.0 mg/kg/injection, schedule: Q01DX009 (oral), vehicle: saline); 145 % of control (dose: 4.0 mg/kg/injection, schedule: Q04DX003 (ip), vehicle: saline); 131 % of control (dose: 4.0 mg/kg/injection, schedule: Q08DX002 (ip), vehicle: saline). Moreover, the survivor count is on record as 4 of 6 (dose: 2.0 mg/kg/injection, schedule: Q01DX009 (ip), vehicle: water); 0 of 10 (dose: 2.0 mg/kg/injection, schedule: Q03HX008 (ip), vehicle: saline); 0 of 10 (dose: 2.0 mg/kg/injection, schedule: Q03HX016 (ip), vehicle: saline); 0 of 10 (dose: 2.0 mg/kg/injection, schedule: Q03HX024 (ip), vehicle: saline); 6 of 6 (dose: 2.9 mg/kg/injection, schedule: Q01DX009 (ip), vehicle: saline); 6 of 6 (dose: 4.0 mg/kg/injection, schedule: Q01DX006 (iv), vehicle: saline). For the same molecule, the survivor count runs as follows: (dose: 4.0 mg/kg/injection, schedule: Q01DX009 (ip), vehicle: saline) 8 of 10 and 10 of 10; (dose: 4.0 mg/kg/injection, schedule: Q01DX009 (ip), vehicle: water) 1 of 6 and 2 of 6; (dose: 4.0 mg/kg/injection, schedule: Q01DX009 (sc), vehicle: saline) 9 of 10; (dose: 4.0 mg/kg/injection, schedule: Q01DX010 (ip), vehicle: saline) 2 of 6; (dose: 4.0 mg/kg/injection, schedule: Q01DX010 (oral), vehicle: saline) 6 of 6; (dose: 4.5 mg/kg/injection, schedule: Q01DX009 (ip), vehicle: saline) 0 of 6. For the same molecule, the survivor count is, setting by setting: (dose: 6.7 mg/kg/injection, schedule: Q01DX009 (ip), vehicle: saline) 0 of 6; (dose: 8.0 mg/kg/injection, schedule: Q01DX006 (iv), vehicle: saline) 4 of 6; (dose: 8.0 mg/kg/injection, schedule: Q01DX009 (oral), vehicle: saline) 0 of 10; (dose: 8.0 mg/kg/injection, schedule: Q01DX009 (sc), vehicle: saline) 1 of 10; (dose: 8.0 mg/kg/injection, schedule: Q01DX010 (ip), vehicle: saline) 2 of 6; (dose: 8.0 mg/kg/injection, schedule: Q01DX010 (sc), vehicle: saline) 6 of 6. The survivor count is given as 6 of 10 (dose: 16.0 mg/kg/injection, schedule: Q01DX001 (ip), vehicle: saline); 1 of 6 (dose: 16.0 mg/kg/injection, schedule: Q01DX010 (oral), vehicle: saline); 6 of 10 (dose: 16.0 mg/kg/injection, schedule: Q04DX003 (ip), vehicle: saline); 4 of 10 (dose: 16.0 mg/kg/injection, schedule: Q08DX002 (ip), vehicle: saline).

Consider `O=C(O)O.[Ce]`, for which the T/C (dose: 200.0 mg/kg/injection, schedule: Q01DX009 (ip), vehicle: saline with Tween-80) was 126 % of control.

Take `CCOC(=O)Nc1cc2c(c(N)n1)N=C(CN(C)c1ccccc1)CN2`: the T/C (dose: 25.0 mg/kg/injection, schedule: Q01DX001 (ip), vehicle: Klucel (hydroxypropylcellulose) (HPC)) was 132 % of control. Where the note is “dose: 200.0 mg/kg/injection, schedule: Q01DX001 (ip), vehicle: Klucel (hydroxypropylcellulose) (HPC)”, the survivor count is 3 of 6.
